This is one part of the list. Single values are uncertain, as repeats are few or missing.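 Imaging used 1,536-well plates; nuclei positive for cleaved PARP by antibody were divided by total DNA-stained nuclei to yield the apoptosis fraction. Doses for screening kept most cells viable, and cell lines differ markedly in resting and induced cleaved-PARP levels.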
Experiments:
Assay in all cases: cleaved PARP positive nuclei fraction relative to DMSO control; melanoma cells; higher = more apoptosis
Conditions in all cases: library dose: low library concentration; 72 h
CBRC034 = tested on: CBRC034 (line from a melanoma biopsy)
COLO792 = tested on: COLO792
COLO800 = tested on: COLO800
COLO829 = tested on: COLO829
G361 = tested on: G361
IPC-298 = tested on: IPC-298
IST-MEL1 = tested on: IST-MEL1
LB2518-MEL = tested on: LB2518-MEL
LOXIMVI = tested on: LOXIMVI
MEL-HO = tested on: MEL-HO

Structure (SMILES) | cleaved PARP positive nuclei fraction (CBRC034) [%] | cleaved PARP positive nuclei fraction (COLO792) [%] | cleaved PARP positive nuclei fraction (COLO800) [%] | cleaved PARP positive nuclei fraction (COLO829) [%] | cleaved PARP positive nuclei fraction (G361) [%] | cleaved PARP positive nuclei fraction (IPC-298) [%] | cleaved PARP positive nuclei fraction (IST-MEL1) [%] | cleaved PARP positive nuclei fraction (LB2518-MEL) [%] | cleaved PARP positive nuclei fraction (LOXIMVI) [%] | cleaved PARP positive nuclei fraction (MEL-HO) [%]
CS(=O)(=O)c1ccc(C(=O)Nc2ccc(Cl)c(-c3ccccn3)c2)c(Cl)c1 [vismodegib] + CO[C@H]1C[C@@H]2CC[C@@H](C)[C@@](O)(O2)C(=O)C(=O)N2CCCC[C@H]2C(=O)O[C@H]([C@H](C)C[C@@H]2CC[C@@H](OCCO)[C@H](OC)C2)CC(=O)[C@H](C)/C=C(\C)[C@@H](O)[C@@H](OC)C(=O)[C@H](C)C[C@H](C)/C=C/C=C/C=C/1C [everolimus] (first compound 1 µM, partner dose 0.02 µM) | 388 | 135 | 134 | 245 | 259 | 155 | 38.3 | 152 | 109 | 139
CC1(C)CCC(c2ccc(Cl)cc2)=C(CN2CCN(c3ccc(C(=O)NS(=O)(=O)c4ccc(N[C@H](CCN5CCOCC5)CSc5ccccc5)c(S(=O)(=O)C(F)(F)F)c4)cc3)CC2)C1 + C#Cc1cccc(Nc2ncnc3cc(OCCOC)c(OCCOC)cc23)c1 [erlotinib] (first compound 0.4 µM, partner dose 0.8 µM) | 44.1 | 483 | 37.7 | 77 | 294 | 212 | 166 | 222 | 190 | 99
C[C@]1(O)C[C@@H](c2nc(-c3ccc4ccc(-c5ccccc5)nc4c3)c3c(N)nccn32)C1 + C#Cc1cccc(Nc2ncnc3cc(OCCOC)c(OCCOC)cc23)c1 [erlotinib] (first compound 0.4 µM, partner dose 0.8 µM) | 109 | 83.3 | 71.7 | 88.4 | 81.2 | 183 | 124 | 212 | 84.6 | 87.3
CCCCCCCCc1ccc(CCC(N)(CO)CO)cc1 [fingolimod] + Cn1c(Nc2ccc(C(F)(F)F)cc2)nc2cc(Oc3ccnc(-c4ncc(C(F)(F)F)[nH]4)c3)ccc21 [CHIR265] (first compound 2 µM, partner dose 0.08 µM) | 41.4 | 252 | 109 | 83.6 | 158 | 149 | 168 | 382 | 136 | 188
C[C@@H](N)c1ccc(C(=O)Nc2ccnc3[nH]ccc23)cc1 + COc1ccc(Cl)c(Nc2nc3ccccc3nc2NS(=O)(=O)c2cccc(NC(=O)C(C)(C)N)c2)c1 [XL147] (first compound 0.4 µM, partner dose 0.8 µM) | 84.8 | 149 | 85.6 | 74.2 | 151 | 87.4 | 150 | 85.4 | 182 | 87.3
NC(=O)c1ccc(N(C(N)=O)c2c(F)cccc2F)nc1-c1ccc(F)cc1F + CN(c1ncccc1CNc1nc(Nc2ccc3c(c2)CC(=O)N3)ncc1C(F)(F)F)S(C)(=O)=O [PF562271] (first compound 0.4 µM, partner dose 0.08 µM) | 88.2 | 123 | 99 | 206 | 52.8 | 46.8 | 129 | 108 | 206 | 215
CS(=O)(=O)c1ccc(C(=O)Nc2ccc(Cl)c(-c3ccccn3)c2)c(Cl)c1 [vismodegib] + COc1ccc(Cl)c(Nc2nc3ccccc3nc2NS(=O)(=O)c2cccc(NC(=O)C(C)(C)N)c2)c1 [XL147] (first compound 1 µM, partner dose 0.8 µM) | 73.3 | 70.2 | 46.4 | 63 | 70.9 | 94.8 | 142 | 55.9 | 51.2 | 66.9
COc1ccc(C2=N[C@@H](c3ccc(Cl)cc3)[C@@H](c3ccc(Cl)cc3)N2C(=O)N2CCNC(=O)C2)c(OC(C)C)c1 [Nutlin-3] + OCc1c[nH]c2ccccc12 [Indole-3-carbinol] (first compound 0.1 µM, partner dose 0.8 µM) | 52.9 | 105 | 127 | 114 | 165 | 80.3 | 93.3 | 110 | 139 | 26.7
CN(c1ncccc1CNc1nc(Nc2ccc3c(c2)CC(=O)N3)ncc1C(F)(F)F)S(C)(=O)=O + Cn1nnc2c(C(N)=O)ncn2c1=O [temozolomide] (first compound 0.08 µM, partner dose 2 µM) | 81.5 | 137 | 60.6 | 124 | 80.6 | 136 | 285 | 123 | 176 | 211
CS(=O)(=O)c1ccc(C(=O)Nc2ccc(Cl)c(-c3ccccn3)c2)c(Cl)c1 [vismodegib] + OCc1c[nH]c2ccccc12 [Indole-3-carbinol] (first compound 1 µM, partner dose 0.8 µM) | 103 | 86.7 | 89.9 | 57.3 | 145 | 90.4 | 64.6 | 119 | 84.3 | 96.9
Cn1sc(=O)n(Cc2ccccc2)c1=O + Cn1nnc2c(C(N)=O)ncn2c1=O [temozolomide] (first compound 0.4 µM, partner dose 2 µM) | 66.9 | 85.6 | 53.9 | 82.8 | 80.7 | 160 | 64.7 | 105 | 47.2 | 148
CC(=O)O[C@@]12CO[C@@H]1C[C@H](O)[C@@]1(C)C(=O)[C@H](O)C3=C(C)[C@@H](OC(=O)[C@H](O)[C@@H](NC(=O)OC(C)(C)C)c4ccccc4)C[C@@](O)([C@@H](OC(=O)c4ccccc4)[C@H]21)C3(C)C [Docetaxel] + Nc1nc(F)nc2c1ncn2[C@@H]1O[C@H](CO)[C@@H](O)[C@@H]1O [fludarabine] (first compound 0.0001 µM, partner dose 0.2 µM) | 107 | 531 | 287 | 275 | 1100 | 215 | 389 | 327 | 302 | 630
Cn1cnc2c(F)c(Nc3ccc(Br)cc3Cl)c(C(=O)NOCCO)cc21 [selumetinib] + Nc1nc(F)nc2c1ncn2[C@@H]1O[C@H](CO)[C@@H](O)[C@@H]1O [fludarabine] (first compound 0.015 µM, partner dose 0.2 µM) | 133 | 48 | 104 | 80.7 | 136 | 133 | 128 | 64.3 | 83.1 | 347
C[C@@H](N)c1ccc(C(=O)Nc2ccnc3[nH]ccc23)cc1 + COc1ccc(C2=N[C@@H](c3ccc(Cl)cc3)[C@@H](c3ccc(Cl)cc3)N2C(=O)N2CCNC(=O)C2)c(OC(C)C)c1 [Nutlin-3] (first compound 0.4 µM, partner dose 0.1 µM) | 93.5 | 291 | 99.3 | 57.7 | 73.9 | 252 | 129 | 282 | 58.1 | 52.8
NC1(c2ccc(-c3nc4ccn5c(=O)[nH]nc5c4cc3-c3ccccc3)cc2)CCC1 + Cn1c(=O)n(-c2ccc(C(C)(C)C#N)cc2)c2c3cc(-c4cnc5ccccc5c4)ccc3ncc21 [NVP-BEZ235] (first compound 0.4 µM, partner dose 0.004 µM) | 37.1 | 294 | 40.1 | 189 | 136 | 205 | 230 | 68.1 | 46.5 | 108
CCCCCCCCc1ccc(CCC(N)(CO)CO)cc1 [fingolimod] + CNC(=O)c1cc(Oc2ccc(NC(=O)Nc3ccc(Cl)c(C(F)(F)F)c3)cc2)ccn1 [sorafenib] (first compound 2 µM, partner dose 0.4 µM) | 90.6 | 85.4 | 158 | 37.1 | 142 | 89.3 | 70.1 | 96.6 | 105 | 184
Cn1cnc2c(F)c(Nc3ccc(Br)cc3Cl)c(C(=O)NOCCO)cc21 [selumetinib] + CCN(CC)CCNC(=O)c1c(C)[nH]c(/C=C2\C(=O)Nc3ccc(F)cc32)c1C [sunitinib] (first compound 0.015 µM, partner dose 0.4 µM) | 198 | 110 | 106 | 50 | 186 | 37.7 | 36.9 | 209 | 61.8 | 94.2
NC1(c2ccc(-c3nc4ccn5c(=O)[nH]nc5c4cc3-c3ccccc3)cc2)CCC1 + CN1CCN(c2ccc3nc(-c4c(N)c5c(F)cccc5[nH]c4=O)[nH]c3c2)CC1 [Dovitinib] (first compound 0.4 µM, partner dose 0.1 µM) | 277 | 111 | 71.4 | 138 | 194 | 46.2 | 70.9 | 121 | 93.5 | 35.6
Cn1sc(=O)n(Cc2ccccc2)c1=O + COc1ccc(C2=N[C@@H](c3ccc(Cl)cc3)[C@@H](c3ccc(Cl)cc3)N2C(=O)N2CCNC(=O)C2)c(OC(C)C)c1 [Nutlin-3] (first compound 0.4 µM, partner dose 0.1 µM) | 170 | 85.9 | 93.9 | 128 | 47.9 | 175 | 33.2 | 129 | 127 | 143

Whole records from above. Values in the order: cleaved PARP positive nuclei fraction (CBRC034) [%] | cleaved PARP positive nuclei fraction (COLO792) [%] | cleaved PARP positive nuclei fraction (COLO800) [%] | cleaved PARP positive nuclei fraction (COLO829) [%] | cleaved PARP positive nuclei fraction (G361) [%] | cleaved PARP positive nuclei fraction (IPC-298) [%] | cleaved PARP positive nuclei fraction (IST-MEL1) [%] | cleaved PARP positive nuclei fraction (LB2518-MEL) [%] | cleaved PARP positive nuclei fraction (LOXIMVI) [%] | cleaved PARP positive nuclei fraction (MEL-HO) [%]
COc1ccc(C2=N[C@@H](c3ccc(Cl)cc3)[C@@H](c3ccc(Cl)cc3)N2C(=O)N2CCNC(=O)C2)c(OC(C)C)c1 [Nutlin-3] + OCc1c[nH]c2ccccc12 [Indole-3-carbinol] (first compound 0.1 µM, partner dose 0.8 µM) in the list: 52.9 | 105 | 127 | 114 | 165 | 80.3 | 93.3 | 110 | 139 | 26.7
NC(=O)c1ccc(N(C(N)=O)c2c(F)cccc2F)nc1-c1ccc(F)cc1F + CN(c1ncccc1CNc1nc(Nc2ccc3c(c2)CC(=O)N3)ncc1C(F)(F)F)S(C)(=O)=O [PF562271] (first compound 0.4 µM, partner dose 0.08 µM) in the list: 88.2 | 123 | 99 | 206 | 52.8 | 46.8 | 129 | 108 | 206 | 215

— the supplement of paper PMC4604168 (melanoma cell lines)
